Data source: PubChem BioAssay AID1259425 (University of Nebraska Medical Center, 2018)
Test: 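Compare each knockdown with KSR1 silencing using changes in marker transcripts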 (primary screen). Cell system: HCT116 human colon cancer cells. Knock-down reagent: siRNA pool against human genes, 50 nM siRNA. Read-out: 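mRNA of six signature genes measured together by branched-DNA assay after 50 nM siRNA pool, blank removed, divided by geometric mean of two housekeeping genes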. Reading the numbers: BNIP3L mRNA: higher = more BNIP3L transcript after knockdown.
Shown is one part, drawn at random, of about 14,000 deposited reagents. Not all columns of the deposit are shown. Reagent sequences are not shown. Not stated in the record: the time to read-out.

Gene	PubChem SID	BNIP3L mRNA, set 1
MT-CO1	SID364004839	0.136
PPIP5K2	SID363999366	0.0954
PTGFRN	SID364005132	0.0607
CCL1	SID363994132	0.134
DPYS	SID363992656	0.17
ACKR4	SID364000192	0.144
RALA	SID363996311	0.0591
GKAP1	SID364003316	0.0498
NECTIN1	SID363994011	0.0516
THAP1	SID364000784	0.118
SATB1	SID363994122	0.144
GP2	SID363992760	0.113
FLG	SID364005203	0.0859
CNR2	SID363993055	0.065
PTPRD	SID363993995	0.0675
DHX9	SID363992634	0.12
RNF2	SID363997908	0.0793
VGF	SID363994490	0.0476
TEC	SID363994344	0.0797
IP6K1	SID364004766	0.162
CD63	SID363992999	0.0754
PANX1	SID363999446	0.05
TNRC6B	SID364005113	0.0552
NODAL	SID364000743	0.147
GUCY1B2	SID363995139	0.116
ZNF175	SID363997851	0.127
GIMAP2	SID363999631	0.156
NXT1	SID363998372	0.133
SLC26A6	SID364002600	0.141
ABCA1	SID363996403	0.0657
TRAP1	SID364000013	0.162
PDCD11	SID364005507	0.182
NSMCE4A	SID364000394	0.137
C2	SID363991400	0.0304

Individual results from the entries so far:
ABCA1 [SID363996403], BNIP3L mRNA, set 1 → 0.0657
Value of DHX9 [SID363992634] in “BNIP3L mRNA, set 1”: 0.12
Value of ACKR4 [SID364000192] in “BNIP3L mRNA, set 1”: 0.144
RALA [SID363996311], BNIP3L mRNA, set 1: 0.0591
